{
  "sequences": {"note": "Protein sequences, listed by entry. Tags and fused reporters are not part of them. Lines headed by an entry give the natural chain unless they say otherwise; changes in a name come on top.", "UniProt P51450": "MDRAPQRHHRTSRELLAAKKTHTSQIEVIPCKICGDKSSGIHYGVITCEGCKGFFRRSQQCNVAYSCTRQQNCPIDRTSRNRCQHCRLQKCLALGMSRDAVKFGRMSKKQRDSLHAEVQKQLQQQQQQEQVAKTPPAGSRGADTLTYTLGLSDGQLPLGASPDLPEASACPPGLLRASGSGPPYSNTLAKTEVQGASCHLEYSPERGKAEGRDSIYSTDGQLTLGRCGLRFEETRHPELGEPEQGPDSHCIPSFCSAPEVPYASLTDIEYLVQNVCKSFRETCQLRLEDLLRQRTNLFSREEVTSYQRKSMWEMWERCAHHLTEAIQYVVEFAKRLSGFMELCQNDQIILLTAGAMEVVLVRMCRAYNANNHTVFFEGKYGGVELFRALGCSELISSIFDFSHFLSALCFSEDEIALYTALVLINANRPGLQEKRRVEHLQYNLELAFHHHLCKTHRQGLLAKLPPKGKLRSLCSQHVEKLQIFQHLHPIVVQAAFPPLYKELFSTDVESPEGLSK"},
  "source": "PubChem BioAssay AID2551",
  "about": "(National Center for Advancing Translational Sciences (NCATS), 2010)",
  "note": "The campaign covered roughly 310,000 compounds. About 17,000 (5.5%) were called active. This list was built around the results that the source calls inconclusive (neither active nor inactive); the mix of calls is not that of the screen. Calls follow the shape of the dose curve; as a rule, active = well fitted inhibition curve with a large enough effect; inconclusive = small, poorly fitted or top-dose-only effect, or effect the other way; inactive = no such curve, though single readings can be large or run the other way. A potency beside an inconclusive call is a rough fit, not a confirmed value. % is scaled to controls: 0 for no effect and ±100 for the full control effect; potency is read from the fitted curve at half-maximal effect.",
  "data": [
    {"biological_target": "Nuclear receptor ROR-gamma (Mus musculus) (UniProt P51450)", "experiment": "qHTS for inhibitors of ROR gamma transcriptional activity; also: nearly all actives have a fitted effect of over 60% in size", "conditions": "Drosophila S2 Gal4-RORgamma UAS-luciferase reporter, 20 h; activity change, negative = inhibition: at 53.6 µM (top of the series)", "method_in_brief": "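Schneider cells (Drosophila), stable Gal4 DBD–ROR gamma + UAS-luc; 1 hr cmpd preincubation; Cu2+ induction 700 uM final; 20 hr ambient; luminescence.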", "values": [
      {"smiles": "COc1ccc(Cc2nnc(SCC(=O)N3CCCC3)o2)cc1", "Potency": "inconclusive: 10 µM [activator, partial curve]"},
      {"smiles": "Cc1ccc(SCCSc2ncccn2)cc1", "activity change, negative = inhibition": "inactive: -11%"},
      {"smiles": "COc1ccccc1Nc1nc2c(s1)CCC2", "Potency": "inconclusive: 25.1 µM [inhibitor, single point]"},
      {"smiles": "CCCn1c(NC(=O)C2CCN(C(=O)c3ccc(F)cc3)CC2)nc2ccccc21", "Potency": "active: 7.08 µM"},
      {"smiles": "Cc1ccccc1NC(=O)CSc1nnc(-c2ccco2)c(-c2ccco2)n1", "activity change, negative = inhibition": "inactive: 18.2%"},
      {"smiles": "Cc1c(CCC(=O)N2CCC(C(=O)NCCCCCC(=O)O)CC2)c(=O)oc2cc3oc4c(c3cc12)CCCC4", "Potency": "inconclusive: 25.1 µM [inhibitor, single point]"},
      {"smiles": "CC[C@]1(c2ccccc2)NC(=O)NC1=O", "activity change, negative = inhibition": "inactive: -8.82%"},
      {"smiles": "Cn1c(S(=O)(=O)Cc2ccc(Cl)cc2)nc2ccccc21", "Potency": "inconclusive: 15.8 µM [inhibitor, single point]"},
      {"smiles": "c1csc(CNc2ccc3c(c2)OCCO3)c1", "Potency": "inconclusive: 0.794 µM [inhibitor, single point]"},
      {"smiles": "CCC(=O)c1ccc(N2CCN(C(=O)c3ccc(Br)cc3)CC2)c(F)c1", "Potency": "inconclusive: 17.8 µM [activator, partial curve]"},
      {"smiles": "CCOC(=O)c1c(Cc2cccc(Cl)c2)c[nH]c1C", "Potency": "inconclusive: 35.5 µM [activator, single point]"},
      {"smiles": "O=C(N/N=C/C=C\\c1ccccc1[N+](=O)[O-])c1cc(-c2ccc3ccccc3c2)n[nH]1", "Potency": "active: 3.16 µM"},
      {"smiles": "COc1ccccc1C(=O)NCCNc1ccc([N+](=O)[O-])cc1Cl", "Potency": "inconclusive: 22.4 µM [activator, single point]"},
      {"smiles": "O=C(C1CCC(CNc2nc(=S)[nH]c3ccccc23)CC1)N1CCN(c2ccc(F)cc2)CC1", "note": "(configuration not stated)", "Potency": "inconclusive: 5.01 µM [inhibitor, partial curve]"},
      {"smiles": "COCCCNC(=O)CN(c1ccc(Cl)c(Cl)c1)S(C)(=O)=O", "activity change, negative = inhibition": "inactive: -0.219%"},
      {"smiles": "CCOc1cc(/C=C2/NC(=O)N(CC(=O)OC)C2=O)ccc1O", "activity change, negative = inhibition": "inactive: 13.9%"},
      {"smiles": "Cc1ccc(C(=O)O/N=C(\\N)c2ccccn2)cc1C", "Potency": "active: 8.91 µM"},
      {"smiles": "C[C@H]1OC(=O)CC[C@@H]2[C@]1(C)CCC1[C@@]2(C)CC[C@@]2(C)C3CC(C)(C)CC[C@]3(CO)CC[C@]12C", "note": "(some centres not stated)", "activity change, negative = inhibition": "inactive: -17.3%"},
      {"smiles": "COc1ccc(-c2[nH]c(-c3cccc(OC)c3)nc2SCC(=O)NCc2ccco2)cc1", "activity change, negative = inhibition": "inactive: -1.41%"},
      {"smiles": "C#CCN(Cc1ccco1)C(=O)c1cc(COc2ccc(F)cc2Cl)on1", "activity change, negative = inhibition": "inactive: 33.9%"},
      {"smiles": "CC1CC2(CC(C)(C(=O)CSc3n[nH]c(-c4ccccc4Cl)n3)OC2=O)C(=O)O1", "note": "(configuration not stated)", "Potency": "active: 10 µM"},
      {"smiles": "CCCCNCc1cc(Br)c(OCC(=O)N2CCOCC2)c(OC)c1", "activity change, negative = inhibition": "inactive: -13.4%"}
    ]}
  ]
}
